{
  "source": "patent US20060204571A1",
  "about": "“Stable compositions of bupropion or its pharmaceutically acceptable salts” (Sun Pharmaceutical Industries Limited, priority 2005, published 2006)",
  "assay": "Drug excipients compatibility study: blends stored at 60° C. for 15 days, total impurities by HPLC",
  "type": "physicochemical",
  "settings": "excipient intimately blended with bupropion or its salt, ratio about 0.1:1 to about 1:1, stored at 60° C. for 15 days",
  "note": "Some entries share one result that the patent states for a list of compounds.",
  "data": [
    {"smiles": "CCCCCCCCCCCCCCCCCC(=O)O", "note": "[stearic acid]", "values": [
      {"measurement": "total impurities of the blend", "result": "more than 2 % by weight of bupropion hydrochloride"}
    ]},
    {"smiles": "OC[C@@H](O)[C@@H](O)[C@H](O)[C@H](O)CO", "note": "[mannitol]", "values": [
      {"measurement": "total impurities of the blend", "result": "more than 2 % by weight of bupropion hydrochloride"}
    ]}
  ]
}
